Results are given in words; binding and its absence hold for the method and conditions named.

Amino acid sequences for entries named in this document (tags omitted). Residues count along the entry.
UniProt P00791, residues 60-385: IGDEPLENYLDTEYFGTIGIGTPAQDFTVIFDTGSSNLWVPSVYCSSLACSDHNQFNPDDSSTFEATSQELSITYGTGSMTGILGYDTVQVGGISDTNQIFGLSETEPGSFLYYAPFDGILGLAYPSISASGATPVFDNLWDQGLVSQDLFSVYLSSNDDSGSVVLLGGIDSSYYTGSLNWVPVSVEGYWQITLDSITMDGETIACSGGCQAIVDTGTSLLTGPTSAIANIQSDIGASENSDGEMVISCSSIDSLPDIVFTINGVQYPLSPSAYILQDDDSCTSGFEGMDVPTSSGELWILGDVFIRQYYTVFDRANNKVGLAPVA

Two molecules from paper PMC4597091 can be followed below.

The target of assay [1] is T1, MmPepT1^ECD, extracellular domain of Mus musculus PepT1 (residues 391–580) (Mus musculus) (UniProt Q9JIP7).
T1 sequence: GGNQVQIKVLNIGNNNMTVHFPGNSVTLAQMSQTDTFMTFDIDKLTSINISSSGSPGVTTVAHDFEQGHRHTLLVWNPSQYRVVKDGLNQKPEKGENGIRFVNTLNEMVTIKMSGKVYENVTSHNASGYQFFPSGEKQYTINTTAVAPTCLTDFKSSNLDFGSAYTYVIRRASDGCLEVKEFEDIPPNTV
Kind of assay: SPR; PepT1^ECD or PepT2^ECD immobilised on a CM5 chip by amine coupling (1,000 RU); ligand 7.81-1000 μM injected; 20°C; 25 mM MES pH 6.5, 100 mM NaCl, 10 mM CaCl2, 0.005% Tween 20, 2 mg/ml dextran, 1 mg/ml salmon sperm DNA; global 1:1 model; both purified. Background: SPR reads the build-up and loss of mass on a sensor chip optically.

For assay [2], the target named is T1, MmPepT1^ECD, extracellular domain of Mus musculus PepT1 (residues 391–580) (Mus musculus). Description: crystal structure; MmPepT1^ECD, space group P2(1)2(1)2(1), two monomers in the asymmetric unit; 20% PEG 6000, 0.1 M MES pH 6.0, 0.2 M ammonium chloride, 4°C; both purified.
For assay [3] the target is unchanged. Kind of assay: AUC; purified ECDs; s0(20,W) values 2.16 and 2.22, Lamm equation fit; both purified.

For the molecule “pepsin (from UniProt P00791 60-385) (enzyme)”, the binding entry in assay [1] was “no binding (tested: 1000 μM)”.

B1: MmPepT1^ECD, extracellular domain of Mus musculus PepT1 (residues 391–580) (domain or fragment, UniProt Q9JIP7 391-580)
chain: T1 sequence
As to B1, the binding result in assay [2] and in assay [3] was “no binding” each time.
